Results: US20070042463A1
Results are given in words; binding and its absence hold for the method and conditions named. Some results given as binding are weak or reduced against the parent protein; the word gives no strength.

The chains behind the UniProt entries cited, without tags or fusion partners. Where a name states a change or a piece, a line headed by the entry shows the natural chain unless it says otherwise. Residues count along the entry.
UniProt Q8IUQ4: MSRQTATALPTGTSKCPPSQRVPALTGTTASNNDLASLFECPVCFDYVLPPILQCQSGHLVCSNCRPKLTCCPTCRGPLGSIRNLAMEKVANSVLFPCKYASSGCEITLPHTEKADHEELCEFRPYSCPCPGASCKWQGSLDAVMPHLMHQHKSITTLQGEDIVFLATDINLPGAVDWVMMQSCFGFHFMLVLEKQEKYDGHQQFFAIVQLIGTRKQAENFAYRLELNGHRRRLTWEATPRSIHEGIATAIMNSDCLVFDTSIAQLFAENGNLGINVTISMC
UniProt P25054, residues 2681-2843: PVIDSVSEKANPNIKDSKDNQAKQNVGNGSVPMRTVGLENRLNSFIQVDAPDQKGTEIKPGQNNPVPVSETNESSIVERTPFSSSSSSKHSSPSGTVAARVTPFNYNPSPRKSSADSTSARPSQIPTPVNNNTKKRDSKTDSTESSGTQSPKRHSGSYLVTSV

Assays:
[1] = target: T1, Siah-1 (human) (UniProt Q8IUQ4); assay: yeast two-hybrid; LexA-APC(2681-2843) with B42-Siah-1; growth on leucine-deficient media (Leu+)
T1 sequence: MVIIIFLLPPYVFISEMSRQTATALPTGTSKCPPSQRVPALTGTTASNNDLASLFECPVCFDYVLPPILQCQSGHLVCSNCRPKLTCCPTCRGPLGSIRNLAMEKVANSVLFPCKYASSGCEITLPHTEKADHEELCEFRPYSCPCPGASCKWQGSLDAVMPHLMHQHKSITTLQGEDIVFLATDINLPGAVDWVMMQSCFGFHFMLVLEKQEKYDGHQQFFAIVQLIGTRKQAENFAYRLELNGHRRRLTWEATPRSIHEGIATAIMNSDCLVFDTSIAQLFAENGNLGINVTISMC

[2] = target: T1, Siah-1 (human); assay: yeast two-hybrid
[3] = target: T1, Siah-1 (human); assay: yeast two-hybrid; LexA-APC(2681-2843) with B42-Siah-1; β-galactosidase filter assay

Measured: binding

APC (2681-2843) (from UniProt P25054 2681-2843)
binds: all assays above
